Experimental data reported in article PMC9830429.
Results are given in words; binding and its absence hold for the method and conditions named. Binding seen in cells or lysates may run through a third protein. Some results given as binding are weak or reduced against the parent protein; the word gives no strength.

By UniProt entry, the sequences of proteins in these tests, tags left out. Where a name states a change or a piece, a line headed by the entry shows the natural chain unless it says otherwise.
UniProt Q05397: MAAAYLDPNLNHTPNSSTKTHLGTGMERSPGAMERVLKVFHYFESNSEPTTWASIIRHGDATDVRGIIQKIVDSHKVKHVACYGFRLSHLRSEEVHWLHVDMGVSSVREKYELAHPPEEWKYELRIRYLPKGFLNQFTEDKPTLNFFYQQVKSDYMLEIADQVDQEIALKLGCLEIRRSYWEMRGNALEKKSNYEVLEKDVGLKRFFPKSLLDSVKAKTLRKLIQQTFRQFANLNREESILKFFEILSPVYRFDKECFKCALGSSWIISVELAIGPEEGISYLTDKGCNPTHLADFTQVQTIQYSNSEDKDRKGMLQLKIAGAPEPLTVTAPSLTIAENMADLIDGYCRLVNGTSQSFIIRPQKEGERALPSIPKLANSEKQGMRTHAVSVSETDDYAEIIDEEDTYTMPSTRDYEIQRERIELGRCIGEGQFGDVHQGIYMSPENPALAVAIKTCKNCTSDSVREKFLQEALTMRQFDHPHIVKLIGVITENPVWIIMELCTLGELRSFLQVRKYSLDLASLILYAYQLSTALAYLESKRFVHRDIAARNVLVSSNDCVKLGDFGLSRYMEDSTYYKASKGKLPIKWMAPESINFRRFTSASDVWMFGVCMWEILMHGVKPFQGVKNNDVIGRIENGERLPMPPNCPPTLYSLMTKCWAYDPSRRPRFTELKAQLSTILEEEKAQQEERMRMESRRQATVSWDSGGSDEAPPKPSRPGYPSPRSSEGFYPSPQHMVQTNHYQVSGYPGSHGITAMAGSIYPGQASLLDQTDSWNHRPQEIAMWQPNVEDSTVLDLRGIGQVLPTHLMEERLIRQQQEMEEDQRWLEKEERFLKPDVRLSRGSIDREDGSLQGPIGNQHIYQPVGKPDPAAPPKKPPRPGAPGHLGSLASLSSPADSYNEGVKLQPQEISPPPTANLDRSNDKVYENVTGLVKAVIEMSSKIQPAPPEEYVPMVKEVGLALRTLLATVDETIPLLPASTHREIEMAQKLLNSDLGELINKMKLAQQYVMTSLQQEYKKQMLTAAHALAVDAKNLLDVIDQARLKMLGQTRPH
UniProt P05556: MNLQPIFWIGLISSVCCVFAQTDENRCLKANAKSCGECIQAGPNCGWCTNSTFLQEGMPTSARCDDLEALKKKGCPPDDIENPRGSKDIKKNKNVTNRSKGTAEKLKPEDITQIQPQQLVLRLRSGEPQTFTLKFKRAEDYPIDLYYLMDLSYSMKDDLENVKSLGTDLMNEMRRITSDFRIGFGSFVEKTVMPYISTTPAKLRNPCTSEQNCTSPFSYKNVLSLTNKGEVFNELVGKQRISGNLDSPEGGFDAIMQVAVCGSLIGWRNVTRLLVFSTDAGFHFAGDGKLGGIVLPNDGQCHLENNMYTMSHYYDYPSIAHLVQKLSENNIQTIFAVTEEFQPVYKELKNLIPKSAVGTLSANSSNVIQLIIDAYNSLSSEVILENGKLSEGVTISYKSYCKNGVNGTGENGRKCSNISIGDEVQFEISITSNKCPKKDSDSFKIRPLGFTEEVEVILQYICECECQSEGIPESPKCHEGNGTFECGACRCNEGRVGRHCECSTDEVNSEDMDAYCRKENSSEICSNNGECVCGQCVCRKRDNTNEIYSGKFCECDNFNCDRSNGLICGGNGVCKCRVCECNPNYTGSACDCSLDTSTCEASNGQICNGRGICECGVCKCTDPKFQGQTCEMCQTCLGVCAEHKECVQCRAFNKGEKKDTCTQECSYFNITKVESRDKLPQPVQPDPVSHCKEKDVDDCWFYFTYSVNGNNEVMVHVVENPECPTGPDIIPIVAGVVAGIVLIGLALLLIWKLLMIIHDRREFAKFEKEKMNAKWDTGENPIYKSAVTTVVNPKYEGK

Molecular target: focal adhesion kinase (human (endogenous in EOC cell lines)) (UniProt Q05397)
Assay: co-IP; supernatant of 1 x 10^7 EOC cells in IP lysis buffer; IgG or IP antibodies 2 h at 4 °C, protein A/G magnetic beads 2 h at 4 °C; rinsed thrice with high-salt or low-salt buffer; read by silver staining and western blotting

integrin subunit beta 1 (from UniProt P05556 21-798) (receptor)
binding: binds
